The source of these data is patent US20220169740A1.

Assay [1] concerns the target canine FcRn with a poly-His tag / canine B2M heterodimer complex (canine). The assay can be described thus: SPR (Biacore) sensorgram, FIG. 6. In general terms: In SPR one partner is held on a chip, and binding of the other changes the refractive index at the surface.
For assay [2] the target is unchanged. As to the kind of experiment: off-rate screen at pH 6; SASA-tagged Fc from E. coli culture media captured on immobilised BSA (plate or Biacore chip), soluble canine FcRn/B2M complex.
Assay [3] has the same target. The assay can be described thus: SPR (Biacore) sensorgram, FIG. 8.
Assay [4] has the same target. The assay can be described thus: SPR (Biacore) sensorgram, FIG. 7.
The target is the same in assay [5]. The assay can be described thus: SPR (Biacore) sensorgram, FIG. 5.

These are yes or no findings as the source states them, for the method shown. A result given as binding can be weak or reduced; the word gives no strength. Where a sequence is shown, tags or fusion partners need not be part of it.

B1: variant canine IgG-B Fc polypeptide L(23)Y (protein, not shown: small tags and cut ends)
chain: PAPEMLGGPSVFIFPPKPKDTLYIARTPEVTCVVVDLDPEDPEVQISWFVDGKQMQTAKTQPREEQFNGTYRVVSVLPIGHQDWLKGKQFTCKVNNKALPSPIERTISKARGQAHQPSVYVLPPSREELSKNTVSLTCLIKDFFPPDIDVEWQSNGQQEPESKYRTTPPQLDEDGSYFLYSKLSVDKSRWQRGDTFICAVMHEALHNHYTQESLSHSPGK
B1: the binding result in assay [1] and in assay [2] was “binds” throughout.

B2: variant canine IgG-B Fc polypeptide L(23)M (protein, not shown: small tags and cut ends)
chain: PAPEMLGGPSVFIFPPKPKDTLMIARTPEVTCVVVDLDPEDPEVQISWFVDGKQMQTAKTQPREEQFNGTYRVVSVLPIGHQDWLKGKQFTCKVNNKALPSPIERTISKARGQAHQPSVYVLPPSREELSKNTVSLTCLIKDFFPPDIDVEWQSNGQQEPESKYRTTPPQLDEDGSYFLYSKLSVDKSRWQRGDTFICAVMHEALHNHYTQESLSHSPGK
Regarding B2, the binding entry in assay [3] and in assay [2] was “binds” in each case.

B3: variant canine IgG-B polypeptide L(23)S (protein, not shown: small tags and cut ends)
chain: PAPEMLGGPSVFIFPPKPKDTLSIARTPEVTCVVVDLDPEDPEVQISWFVDGKQMQTAKTQPREEQFNGTYRVVSVLPIGHQDWLKGKQFTCKVNNKALPSPIERTISKARGQAHQPSVYVLPPSREELSKNTVSLTCLIKDFFPPDIDVEWQSNGQQEPESKYRTTPPQLDEDGSYFLYSKLSVDKSRWQRGDTFICAVMHEALHNHYTQESLSHSPGK
As for B3, the binding result in assay [2] is “binds”.

B4: variant canine IgG-B Fc polypeptide L(23)F (protein, not shown: small tags and cut ends)
chain: PAPEMLGGPSVFIFPPKPKDTLFIARTPEVTCVVVDLDPEDPEVQISWFVDGKQMQTAKTQPREEQFNGTYRVVSVLPIGHQDWLKGKQFTCKVNNKALPSPIERTISKARGQAHQPSVYVLPPSREELSKNTVSLTCLIKDFFPPDIDVEWQSNGQQEPESKYRTTPPQLDEDGSYFLYSKLSVDKSRWQRGDTFICAVMHEALHNHYTQESLSHSPGK
Take B4: the binding entry in assay [4] and in assay [2] was “binds” in each case.

B5: wild-type canine IgG-B Fc polypeptide (protein, not shown: small tags and cut ends)
chain: PAPEMLGGPSVFIFPPKPKDTLLIARTPEVTCVVVDLDPEDPEVQISWFVDGKQMQTAKTQPREEQFNGTYRVVSVLPIGHQDWLKGKQFTCKVNNKALPSPIERTISKARGQAHQPSVYVLPPSREELSKNTVSLTCLIKDFFPPDIDVEWQSNGQQEPESKYRTTPPQLDEDGSYFLYSKLSVDKSRWQRGDTFICAVMHEALHNHYTQESLSHSPGK
With B5, in assay [5], the binding result is reported as “binds”.
